Test results: PMC7819943, “Rice protein-binding microarrays: a tool to detect cis-acting elements near promoter regions in rice”
Some of the results follow.

Chains of the proteins cited; added tags and fusions are not shown.
UniProt Q0JBA9, entry or part of it: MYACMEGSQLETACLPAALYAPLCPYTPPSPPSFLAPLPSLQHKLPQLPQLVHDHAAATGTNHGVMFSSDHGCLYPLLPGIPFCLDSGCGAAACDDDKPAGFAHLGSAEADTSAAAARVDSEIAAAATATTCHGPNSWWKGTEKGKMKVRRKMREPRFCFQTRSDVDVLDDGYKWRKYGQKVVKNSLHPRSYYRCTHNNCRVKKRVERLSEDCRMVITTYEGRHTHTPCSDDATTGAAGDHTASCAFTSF

molecular target: OsWRKY34 (Oryza sativa, UniProt Q0JBA9 1-250); experiment: protein-binding microarray (RPBM); PBS, 2% BSA, 51.3 ng/ul salmon testes DNA, 50 uM zinc acetate, 200 nM TF, 25 C, 1 h; high values mean tight binding; settings: protein: recombinant; tags: N-terminal polyhistidine and DsRed monomer fusion (pET32a); label: CyDye5-dUTP incorporated in the synthesized complementary strand; 3' TTTTT single-stranded linker to array surface; dsDNA, one strand shown
Method in brief: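 Polyhistidine-tagged DsRed fusions of transcription factors, joined at the N-terminus, were expressed in E. coli BL21-CodonPlus and isolated on Ni–NTA. They were incubated at 200 nM for 1 h at 25 °C on a custom Agilent array, double-stranded and BSA-blocked, in PBS with 2% BSA, salmon testes DNA and 50 µM zinc acetate. The binding signal is per-feature fluorescence intensity (arbitrary units) read on an Axon 4000B scanner after washing.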

Sequence | binding signal
GTGGTTGAATGTGCAGAGGTTTTATTCGCGTGTCACGCTTCGGAGTCACCTAGTGCAG | 12000 fluorescence intensity (a.u.)
CTTCTCCTTTGGCTTTGTGTTGCATTTTCAGTACCAAGAACGGAGTCACCTAGTGCAG | 8430 fluorescence intensity (a.u.)
ATTGGAGTGTTTCGATTTGTCCATCGTGTGTAATATTCAGCGGAGTCACCTAGTGCAG | 9310 fluorescence intensity (a.u.)
CCCGGTTTTCCTTATTAACTAGGCCAACTCTCTTCTTCCACGGAGTCACCTAGTGCAG | 8820 fluorescence intensity (a.u.)
TCTCTACTCTCGGTCTTCTCTCATCGCTCGCCTGTATGTCCGGAGTCACCTAGTGCAG | 11000 fluorescence intensity (a.u.)
GCCCCACTTTAAACATCTACTTGAATGCTTAGACCACTTTCGGAGTCACCTAGTGCAG | 9960 fluorescence intensity (a.u.)
GCAGATGCCATATACTAATTGTACTACATCTCAATCCTCACGGAGTCACCTAGTGCAG | 8570 fluorescence intensity (a.u.)
AAATAATCTTACTTGGATTGTCTCTGTGTTGCTAGGATAACGGAGTCACCTAGTGCAG | 15700 fluorescence intensity (a.u.)
CCTCCTTGGTCACAGCGGCCGCCCACTTCTGCCCAAATCGCGGAGTCACCTAGTGCAG | 8670 fluorescence intensity (a.u.)
AACATCTCCAAGGAGGAAACGGCACCCACAGGCGTCGATGCGGAGTCACCTAGTGCAG | 8140 fluorescence intensity (a.u.)
GTTATATGCCATTAACATCTTGCGTACATATAAGTTTCATCGGAGTCACCTAGTGCAG | 8810 fluorescence intensity (a.u.)
GAAGAAGAGGGTTGTTTTTTTTTTCCTATTTTTCCCTTTACGGAGTCACCTAGTGCAG | 11900 fluorescence intensity (a.u.)
TTATATAAGTACACGCTCCTTCGCTCGCTGCGTGCACTGCCGGAGTCACCTAGTGCAG | 8380 fluorescence intensity (a.u.)
TGCGGCTTTGATTTGCGGGGTTCACACACGAGTAATTGCACGGAGTCACCTAGTGCAG | 10900 fluorescence intensity (a.u.)
CCATAATCCTTATTTTTCATAGTTGCCTCCAATTTCACTCCGGAGTCACCTAGTGCAG | 8390 fluorescence intensity (a.u.)
TCTTCTTCGCAGGACACTGGTCCATTTCCTCCAGTTTCATCGGAGTCACCTAGTGCAG | 8320 fluorescence intensity (a.u.)
TGCTCCTGATCATATCGCTGCCTCTGCACCGGCCTAGCCACGGAGTCACCTAGTGCAG | 8320 fluorescence intensity (a.u.)
CATATCTACCTTCGACATTTTTCACTCTCGCACTCTCCATCGGAGTCACCTAGTGCAG | 8870 fluorescence intensity (a.u.)
TTTTAGTACGTGTTTGTCCATTCGTCTTATTCAAAAAATTCGGAGTCACCTAGTGCAG | 8220 fluorescence intensity (a.u.)
ACACGCTAGCTAGTCCCTGTTCCTTTTACGTTCTTGTATTCGGAGTCACCTAGTGCAG | 8100 fluorescence intensity (a.u.)
TTCTCATGAAATGTATTGGGCAATATCTGTCCCTTGCAACCGGAGTCACCTAGTGCAG | 8340 fluorescence intensity (a.u.)
TTCCTCTCCGCTCACGTGCTTCGCGCCTTCGTCGACGCTCCGGAGTCACCTAGTGCAG | 9720 fluorescence intensity (a.u.)
GCACAGTAACCCTTATATTCTAATCCTAACTACACTTATCCGGAGTCACCTAGTGCAG | 8510 fluorescence intensity (a.u.)
TTACACGCAATCTGTATAATTAGTTTTGTTCTTTGTCTATCGGAGTCACCTAGTGCAG | 9110 fluorescence intensity (a.u.)
ACGGTGAAAACATTGTGTGGGTGTGGCATCTTATTTCTCCCGGAGTCACCTAGTGCAG | 8380 fluorescence intensity (a.u.)
CCCTTTCATACTTCCTATCTATCCATCTACCGAAATACAACGGAGTCACCTAGTGCAG | 8290 fluorescence intensity (a.u.)
CGATATTGTTTTCATTTCCGATTTTACCGTTTTCGATTTTCGGAGTCACCTAGTGCAG | 11700 fluorescence intensity (a.u.)

Sequence | binding signal
GCTCCACCTGCACACGTGTCCCCACCCCATTGGCTCCCTCCGGAGTCACCTAGTGCAG | 9200 fluorescence intensity (a.u.)
AATACTAGCCATTCATCCATTTCGCTTTTCCAATCCCACCCGGAGTCACCTAGTGCAG | 8520 fluorescence intensity (a.u.)
GGATGGGATGGACGCGCGCGCGAGCAACACGGCGAAGTTTCGGAGTCACCTAGTGCAG | 8050 fluorescence intensity (a.u.)
AGTTTTTGTGGTGTTTGGTTGGAGGGCAAGGTGGATGGGGCGGAGTCACCTAGTGCAG | 13100 fluorescence intensity (a.u.)
GTGGCGGCGGAGGAGGTGGGATGGGGATTTGATGATGGCCCGGAGTCACCTAGTGCAG | 8320 fluorescence intensity (a.u.)
CCGCATCATCCACCTCCTTGCCCTTATCCGATAGCCATTACGGAGTCACCTAGTGCAG | 9440 fluorescence intensity (a.u.)
GATCTATGACATCTATGATACTGATTCCATGTTACCGTCACGGAGTCACCTAGTGCAG | 8770 fluorescence intensity (a.u.)
GTTGCGGGAGGAGGAGGGAGGCGGGCCGGGTCCAAGCTGACGGAGTCACCTAGTGCAG | 9340 fluorescence intensity (a.u.)
CATTGTGTGTGATTTTGCAGCTAGATTTTTAGTACGTTATCGGAGTCACCTAGTGCAG | 9350 fluorescence intensity (a.u.)
GAAGCTGGGTTATACTTTCACCATTTTTTTACTCGATCGACGGAGTCACCTAGTGCAG | 8460 fluorescence intensity (a.u.)
CATCCACGCTTTCCCGCATCCTTAGACTGAGTTGTATGCTCGGAGTCACCTAGTGCAG | 8320 fluorescence intensity (a.u.)
CCTTCCAACATGTTTATTATGCATGAGATGTGTGCAACGACGGAGTCACCTAGTGCAG | 8120 fluorescence intensity (a.u.)
CAACTTTGTTGTTGACAACTTTCCCATTTGAAATCATTTACGGAGTCACCTAGTGCAG | 8500 fluorescence intensity (a.u.)
AGTTTCAGTGGGTGTTAGTGTGTCACCATCCATGGCAAGCCGGAGTCACCTAGTGCAG | 10400 fluorescence intensity (a.u.)
GTGAGAGGTGGGTGGGGACGTCAGACTTACGGCGTAGGAACGGAGTCACCTAGTGCAG | 9100 fluorescence intensity (a.u.)
CTATTTGATTCAACAGGTTTCATGTCATCTAGCTTTCTAACGGAGTCACCTAGTGCAG | 10700 fluorescence intensity (a.u.)
GGACACTGAAGAGCATAATGGGGATGTTTGTTTCAAGAGACGGAGTCACCTAGTGCAG | 9380 fluorescence intensity (a.u.)
TGGTGATGTGGATGTGATGTTTACATTTGCTGCTGCCTTTCGGAGTCACCTAGTGCAG | 10100 fluorescence intensity (a.u.)
GTCCTCTGACTCATCATGTTCATCCTCTTCGTCACTTTCTCGGAGTCACCTAGTGCAG | 9300 fluorescence intensity (a.u.)
CACTCCAACGCCGCCGCCGCCGCCGCCGCTTCGGAAGTTCCGGAGTCACCTAGTGCAG | 8360 fluorescence intensity (a.u.)
GTTATGTACTTATGTGCCATCAAGTTTAGTTGATGTATTTCGGAGTCACCTAGTGCAG | 8070 fluorescence intensity (a.u.)
AACCCCAAACCATGCCGAAAACACACATCTTCTACAATTTCGGAGTCACCTAGTGCAG | 11200 fluorescence intensity (a.u.)
GACAAGAATCTCTTCCCATTTTATTTGCGAATTATTCTCACGGAGTCACCTAGTGCAG | 9010 fluorescence intensity (a.u.)
CTCTTTCCATATATCCTGCTGTCTATATCTATACTTCATTCGGAGTCACCTAGTGCAG | 9010 fluorescence intensity (a.u.)
CGCAACGGCGCAACACAACCACTTCGTCGTCTTCCTCTGCCGGAGTCACCTAGTGCAG | 9410 fluorescence intensity (a.u.)
GAGCTAGATGGGTTGGGAAGTTGAGGGAGATGGTCGAGGTCGGAGTCACCTAGTGCAG | 9350 fluorescence intensity (a.u.)
CCGGCACCACAATGAAAATCTAAGACTTTTGCCACTACACCGGAGTCACCTAGTGCAG | 8320 fluorescence intensity (a.u.)

Another view of part of the listing above.
GAGCTAGATGGGTTGGGAAGTTGAGGGAGATGGTCGAGGTCGGAGTCACCTAGTGCAG
  binding signal: 9350 fluorescence intensity (a.u.)
CCGGCACCACAATGAAAATCTAAGACTTTTGCCACTACACCGGAGTCACCTAGTGCAG
  binding signal: 8320 fluorescence intensity (a.u.)
